This data set addresses T1, CtGEN1 (Chaetomium thermophilum) (UniProt G0RYN2).
T1 sequence (looked up): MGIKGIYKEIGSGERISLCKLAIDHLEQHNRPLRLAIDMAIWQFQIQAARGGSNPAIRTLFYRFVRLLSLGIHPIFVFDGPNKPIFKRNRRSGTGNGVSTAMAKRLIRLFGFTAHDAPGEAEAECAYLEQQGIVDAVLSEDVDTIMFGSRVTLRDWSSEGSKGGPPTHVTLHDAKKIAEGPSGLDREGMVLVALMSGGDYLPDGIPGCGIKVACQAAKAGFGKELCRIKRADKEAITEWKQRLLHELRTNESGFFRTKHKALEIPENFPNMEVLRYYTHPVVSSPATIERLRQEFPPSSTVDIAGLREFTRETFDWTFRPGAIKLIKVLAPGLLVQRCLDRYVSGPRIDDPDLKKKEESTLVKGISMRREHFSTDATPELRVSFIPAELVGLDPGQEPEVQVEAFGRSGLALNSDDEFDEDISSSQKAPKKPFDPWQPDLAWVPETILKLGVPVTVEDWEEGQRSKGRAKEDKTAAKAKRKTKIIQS
Kind of data set: EMSA. The settings on record: EMSA: equal volumes of DNA in 10 mM Tris pH 7.5, 0.1% BSA, 100 mM KCl or NaCl and CtGEN1 in 10 mM Tris pH 7.5, 100 mM NDSB-195, 0.1% BSA, 1 mM EDTA, 20 min, 20 C, recombinant protein, residues 1-487, protein details: C-terminal His6, label: 5'-32P, folded or branched DNA. (In general: A gel shift assay detects complexes by their altered migration in electrophoresis.)

Setting [1] is: NaCl, lower affinity than in K+.

Two sequences from article PMC6237754, “A monovalent ion in the DNA binding interface of the eukaryotic junction-resolving enzyme GEN1” can be followed below.

Weaker means in comparison with the reference protein, sequence or condition of that experiment. Where a protein sequence is shown, tags need not be part of it. Construct, isoform or probe ends are uncertain for at least one entry.

“CCTCGAGGGATCCGTCCTAGCAAGGACTCAACTGCAGTCTAGAACACATG / CATCTGTGAATTCAACCACCGCTCAACTCAACTGCAGTCTAGAACACATG / CATGTGTTCTAGACTGCAGTTGAGTCCTTGCTAGGACGGATCCCTCGAGG [three-way junction (3H)]”: the binding result (KCl, weaker than 4H, tighter than nicked 3H) is “binds more weakly” and the binding result under setting [1] was “binds more weakly”.
With “CCTCGAGGGATCCGTCCTAGCAAGGGGCTGCTACCGGAAGCTTACAGATG / CATGTGTTCTAGACTGCAGTTGAGTCCTTGCTAGGACGGATCCCTCGAGG / CATCTGTAAGCTTCCGGTAGCAGCC / ACTCAACTGCAGTCTAGAACACATG [nicked three-way junction]”, the binding result reads like this: (KCl, weaker than 4H and 3H) “binds more weakly”; under setting [1], “binds more weakly”.
